Measured values from PubChem BioAssay AID1671190 (National Center for Advancing Translational Sciences (NCATS), 2021).
Out of some 580,000 compounds screened, about 6,100 (1.1%) were called active. Inconclusive results, whose numbers are uncertain, are shown with a selection of clear calls. The call rests on the fitted dose curve; in most records, active means well fitted inhibition curve with a large enough effect; inconclusive means small, poorly fitted or top-dose-only effect, or another doubt; inactive means no such curve, though single readings can be large or run the other way. Potencies beside an inconclusive call are fits to weak or partial responses and may not hold up.

Amino acid sequences for entries named in this document (tags omitted). A change or cut given only in a name is not applied to a line headed by its entry.
UniProt P18054: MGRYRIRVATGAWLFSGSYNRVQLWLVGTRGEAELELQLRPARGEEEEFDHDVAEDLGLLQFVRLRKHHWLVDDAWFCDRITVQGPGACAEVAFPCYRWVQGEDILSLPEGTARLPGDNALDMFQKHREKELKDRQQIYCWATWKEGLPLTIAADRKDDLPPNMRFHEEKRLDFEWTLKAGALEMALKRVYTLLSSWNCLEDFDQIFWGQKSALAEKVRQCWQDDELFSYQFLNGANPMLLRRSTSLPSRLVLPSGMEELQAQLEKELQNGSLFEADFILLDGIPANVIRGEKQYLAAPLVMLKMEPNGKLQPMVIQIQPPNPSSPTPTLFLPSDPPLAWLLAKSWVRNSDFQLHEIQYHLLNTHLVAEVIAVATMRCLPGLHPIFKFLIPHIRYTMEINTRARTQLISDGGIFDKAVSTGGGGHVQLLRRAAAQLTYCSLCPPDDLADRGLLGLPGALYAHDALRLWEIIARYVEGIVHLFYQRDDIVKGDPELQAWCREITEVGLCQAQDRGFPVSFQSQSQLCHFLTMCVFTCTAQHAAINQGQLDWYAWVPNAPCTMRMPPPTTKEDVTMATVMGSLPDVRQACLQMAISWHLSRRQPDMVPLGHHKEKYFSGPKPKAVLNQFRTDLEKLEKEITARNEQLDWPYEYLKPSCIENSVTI

Target: Polyunsaturated fatty acid lipoxygenase ALOX12 (Homo sapiens) (UniProt P18054)
Experiment: Primary qHTS assay for inhibitors of human arachidonate 12S-lipoxygenase (ALOX12): Round 2
Settings: purified 12hLO, xylenol orange hydroperoxide absorbance; activity change, negative = inhibition: at 108 µM (top of the series) unless noted
How it was run: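 Purified human 12hLO (150 nM final) in 25 mM Hepes, 0.01% Triton X-100, pH 7.0 was preincubated 15 min at room temperature with compound. Then 40 uM arachidonic acid was added, 30 min. Hydroperoxide was read by Fe-XO absorbance ratio 573/405 nm.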
On the % scale 0 is the no-effect control and ±100 the full control effect; potency means the concentration at half of the fitted maximal effect.

| SMILES | activity change, negative = inhibition | Potency |
| --- | --- | --- |
| CC(C)C(NC(=O)c1nn(C)c(=O)c2ccccc12)c1ccccc1 (stereo unspecified) | inactive: -29.8% | – |
| COc1ccc(OC)c(Nc2cc(C)c3ccccc3n2)c1 | inactive: 9.96% | – |
| CCNC(=S)NNC(=O)c1cc(-c2cccc(OCC)c2)nc2ccccc12 | inactive: -14% | – |
| Cc1ccccc1NC(=O)Cn1cc(C(=O)c2ccco2)c2ccccc21 | – | inconclusive: 126 µM [inhibitor, single point] |
| O=C(/C=C/c1ccco1)NC(=S)Nc1ccc(C(=O)O)cc1 | – | inconclusive: 31.6 µM [inhibitor, partial curve, poor fit] |
| CCOC(=O)C1=CC(=O)CC(C)(C)O1 | – | inconclusive: 0.501 µM [inhibitor, full curve, poor fit] |
| CCC(c1nnnn1C1CCCC1)N1CCN(Cc2ccccc2)CC1 (stereo unspecified) | – | inconclusive: 2.51 µM [inhibitor, full curve, poor fit] |
| CCC(C)(C)n1nnnc1C(C(C)C)N(CCCO)Cc1cc2cc(C)ccc2[nH]c1=O (stereo unspecified) | – | inconclusive: 89.1 µM [inhibitor, partial curve, poor fit] |
| CCCn1nnc(NC(=S)NC(=O)CC)n1 | – | inconclusive: 0.891 µM [inhibitor, full curve] |
| Cc1cc(Cl)ccc1OC(C)c1nc(-c2ccc(Br)o2)no1 (stereo unspecified) | – | inconclusive: 44.7 µM [inhibitor, partial curve, poor fit] |
| COCCN(Cc1ccccc1)C(=O)COc1ccc2ccc(=O)oc2c1 | – | inconclusive: 112 µM [inhibitor, single point] |
| CN(C)CCN(Cc1ccccc1)c1nccc(N(C)C)c1C#N | – | inconclusive: 0.282 µM [inhibitor, full curve, poor fit] |
| Cc1ccc(-c2ccc(CN3C(C)C(=O)N(Cc4cn(Cc5ccco5)nn4)CCS3(=O)=O)cc2)c(C)c1 (stereo unspecified) | – | inconclusive: 35.5 µM [inhibitor, partial curve] |
| CCCNc1nc2ccccc2c(=O)[nH]1 | inactive: -5.97% | – |
| CC(NC(=O)CCNC(=O)c1ccco1)c1ccccc1 (stereo unspecified) | – | inconclusive: 44.7 µM [inhibitor, single point] |
| Cc1ccc(-c2ccc(CCC(=O)N[C@@H]3CCOC[C@H]3OCC(=O)O)o2)cc1 | inactive: 4.36% | – |
| O=C(COC(=O)C1CC(=O)N(CCc2ccccc2)C1)c1ccc[nH]1 (stereo unspecified) | inactive: 0.301% | – |
| CC(=O)Nc1ccc(NC(=O)c2oc3c(c2C)-c2nn(Cc4ccccc4Cl)cc2CC3)cc1 | – | inconclusive: 17.8 µM [inhibitor, partial curve, poor fit] |
| CC(C)n1cnnc1CC1CCN(C(=O)c2nn(C)c3ccccc23)C1 (stereo unspecified) | inactive: 34.3% | – |
| O=C(N[C@H]1CCN2C(=O)c3cc(-c4cccs4)ccc3NC(=O)[C@H]12)C1CCCC1 | inactive: -1.84% [at 176 µM] | – |
| COc1ccc(-c2n[nH]c3c2CC(=O)N(CCOc2ccccc2)C3)cc1F | – | inconclusive: 31.6 µM [inhibitor, partial curve, poor fit] |
| O=C(C=Cc1cccs1)c1ccc(Cl)s1 | – | inconclusive: 50.1 µM [inhibitor, partial curve, poor fit] |

| SMILES | activity change, negative = inhibition | Potency |
| --- | --- | --- |
| O=[N+]([O-])c1cccc(COc2ccc(CN3CCCC3)cc2)c1 | – | inconclusive: 31.6 µM [inhibitor, single point] |
| Cc1cc(C)nc(NS(=O)(=O)c2ccc(Nc3nc(-c4ccc(C(C)C)cc4)cs3)cc2)n1 | – | inconclusive: 100 µM [inhibitor, partial curve, poor fit] |
| CCCNC(=O)/C(=C/c1cn(S(=O)(=O)N(C)C)c2ccccc12)NC(=O)c1ccccc1OC | inactive: -25.6% | – |
| COc1cc(CN2CCCCC2C(=O)Nc2ccc(Oc3ccccc3)nc2)ccc1O (stereo unspecified) | – | inconclusive: 8.91 µM [inhibitor, full curve, poor fit] |
| O=C(Nc1ccc(Cl)c(C(F)(F)F)c1)c1ccccc1I | – | inconclusive: 141 µM [inhibitor, single point] |
| CCOC(=O)c1ccc(NC(=O)Cn2nc3c4ccccc4n(Cc4cccc(F)c4)cc-3c2=O)cc1 | – | inconclusive: 100 µM [inhibitor, partial curve, poor fit] |
| CCC(=O)N(CCC(c1ccc(C)cc1)c1ccco1)Cc1ccco1 (stereo unspecified) | – | inconclusive: 44.7 µM [inhibitor, partial curve, poor fit] |
| COc1ccc(C(=O)N[C@H]2CO[C@H]3[C@@H]2OC[C@@H]3n2cc(CN(C)Cc3ccccc3)nn2)cc1 | inactive: -2.83% | – |
| c1ccc2cc(-c3ccn[nH]3)ccc2c1 | – | inconclusive: 31.6 µM [inhibitor, partial curve, poor fit] |
| C=CCn1c(SCC(=O)Nc2ccc(-c3nc4ccc(C)cc4s3)cc2)nnc1-c1ccccc1 | – | inconclusive: 22.4 µM [inhibitor, partial curve, poor fit] |
| Cc1ccc(C)c(NC(=O)c2ncoc2-c2cccc(Cl)c2)c1 | – | inconclusive: 44.7 µM [inhibitor, full curve, poor fit] |
| CCc1cccc(NC(=O)CCn2c(=O)c3cccn3c3cccnc32)c1 | – | inconclusive: 158 µM [inhibitor, single point] |
| Cc1cccc(NC(=O)Cn2nc(-c3ccccc3)c3cnc4ccccc4c32)c1 | – | inconclusive: 141 µM [inhibitor, partial curve, poor fit] |
| Cc1cc(C)n2c(Nc3ccc4c(c3)OCCO4)c(CCc3ccccc3)nc2n1 | inactive: 1.87% | – |
| COc1ccc(C(=O)Nc2ccc(NC(=O)c3ccccc3OC)nc2)cc1 | – | inconclusive: 112 µM [inhibitor, partial curve, poor fit] |
| COCC1CN(C2CCC2)CC12CCN(C(=O)C1(c3ccccc3)CC1)CC2 (stereo unspecified) | inactive: 1.84% | – |
| CC(=O)c1ccc(NC(=S)Nc2cccc3cnccc23)cc1 | – | inconclusive: 44.7 µM [inhibitor, partial curve, poor fit] |
| O=C(Nc1ccccc1C(=O)O)c1cccc(NC(=O)c2ccco2)c1 | – | inconclusive: 25.1 µM [inhibitor, partial curve, poor fit] |
| CCN(CC)CCOc1ccc(Nc2ncc3cc(-c4c(Cl)cccc4Cl)c(=O)n(C)c3n2)cc1 | – | inconclusive: 21.7 µM [inhibitor, partial curve, poor fit] |
| COc1ccc(OC)c(S(=O)(=O)N2C(C)CCCC2C)c1 (stereo unspecified) | – | inconclusive: 10 µM [inhibitor, full curve, poor fit] |
| O=C1NC2(CCN(Cc3cccnc3)CC2)COc2ccccc21 | – | inconclusive: 35.5 µM [inhibitor, full curve, poor fit] |
| Cc1ccc(S(=O)(=O)N2CCN(C(=O)COc3ccc(NC(=O)c4ccco4)cc3)CC2)cc1 | inactive: 82.9% | – |

| SMILES | activity change, negative = inhibition | Potency |
| --- | --- | --- |
| CCOc1ccc(Cl)cc1-c1cc(C(=O)Nc2ccc(OC)cc2OC)[nH]n1 | – | inconclusive: 31.6 µM [inhibitor, partial curve, poor fit] |
| COC(=O)[C@H]1[C@H](CO)[C@H]2Cn3c(cccc3=O)[C@H]2N1Cc1ccccc1Cl | – | inconclusive: 25.1 µM [inhibitor, partial curve] |
| CC1(C)NC(C(=O)O)Cc2c1[nH]c1ccccc21 (stereo unspecified) | – | inconclusive: 39.8 µM [inhibitor, partial curve] |
| O=C(CCCn1c2ccccc2c(=O)c2ccccc21)Nc1cccc(Cl)c1 | – | inconclusive: 50.1 µM [inhibitor, partial curve, poor fit] |
| CC(C(=O)N1CCN(Cc2ccccc2)CC1)n1nc(C(=O)O)c2ccccc2c1=O (stereo unspecified) | inactive: 2.42% | – |
| O=C(Nc1ccc(Cl)cc1Cl)c1ccc2cncn2c1 | – | inconclusive: 28.2 µM [inhibitor, full curve] |
| Cc1ccc(C(=O)Nc2ccc3c(c2)OCO3)o1 | inactive: -15.3% | – |
| CCC(=O)N1CCN(c2cc(N3CCCC3)c(F)cc2[N+](=O)[O-])CC1 | inactive: -18.4% | – |
| Cc1csc2nc(COC(=O)c3ccccc3NC(=O)c3cccc(Br)c3)cc(=O)n12 | – | inconclusive: 50.1 µM [inhibitor, partial curve, poor fit] |
| O=C(O)c1ccccc1N1C(=O)C2C3CCC(C3)C2C1=O (stereo unspecified) | inactive: -0.272% | – |
| O=C(CCCCCNc1nc(=S)[nH]c2ccccc12)NCCc1ccccc1 | inactive: -30.6% | – |
| CC(C)C(c1nnnn1CC1CCCO1)N1CCN(Cc2ccc3c(c2)OCO3)CC1 (stereo unspecified) | – | inconclusive: 35.5 µM [inhibitor, partial curve, poor fit] |
| COC(=O)C(Cc1ccccc1)NC(=O)CCNC(=O)c1ccc(Br)cc1 (stereo unspecified) | – | inconclusive: 141 µM [inhibitor, partial curve, poor fit] |
| COc1ccc(OC)c(NC(=O)C2CCCN(S(=O)(=O)c3cccc4nonc34)C2)c1 (stereo unspecified) | inactive: 3.48% | – |
| O=C1NCc2ccccc2CC12CCCN2Cc1ccc(O)cc1O (stereo unspecified) | – | inconclusive: 11.2 µM [inhibitor, full curve] |
| CNC(=O)[C@@H]1CN(C(=O)c2n[nH]c3ccccc23)C[C@H]1c1nc(C)no1 | inactive: 18.2% | – |
| CCN(CC)S(=O)(=O)c1ccc(N2CC(C(=O)NCCc3ccc(Cl)cc3)CC2=O)cc1 (stereo unspecified) | – | inconclusive: 70.8 µM [inhibitor, partial curve, poor fit] |
| Cc1cc(C)cc(-c2nnc(SCc3ncc(-c4ccccc4)o3)o2)c1 | inactive: -5.65% | – |
| CNC(=O)/C(C#N)=C1/SC(Cc2ccc(F)cc2)C(=O)N1c1ccccc1 (stereo unspecified) | – | inconclusive: 112 µM [inhibitor, single point] |
| O=C1c2ccccc2C(=O)C1c1ccc(Br)cc1 | inactive: 0% | – |
| COc1cc(CNCc2ccc(C(=O)O)cc2)ccc1OCc1ccc(F)cc1 | inactive: -10.1% | – |
| Cc1cccc(Cn2cc(S(=O)(=O)c3cccc(Cl)c3)c(=O)c3cc(F)c(N4CCOCC4)cc32)c1 | – | inconclusive: 89.1 µM [inhibitor, partial curve, poor fit] |

As entered above:
Potency, CN(C)CCN(Cc1ccccc1)c1nccc(N(C)C)c1C#N is entered as inconclusive: 0.282 µM [inhibitor, full curve, poor fit]
Potency, Cc1cccc(Cn2cc(S(=O)(=O)c3cccc(Cl)c3)c(=O)c3cc(F)c(N4CCOCC4)cc32)c1 is entered as inconclusive: 89.1 µM [inhibitor, partial curve, poor fit]
activity change, negative = inhibition, CCC(=O)N1CCN(c2cc(N3CCCC3)c(F)cc2[N+](=O)[O-])CC1 is entered as inactive: -18.4%
activity change, negative = inhibition, CCNC(=S)NNC(=O)c1cc(-c2cccc(OCC)c2)nc2ccccc12 is entered as inactive: -14%
